Source: publication PMC6022668, “Biallelic UFM1 and UFC1 mutations expand the essential role of ufmylation in brain development” (Brain, 2018)

The chains behind the UniProt entries cited, without tags or fusion partners.
UniProt Q9GZZ9: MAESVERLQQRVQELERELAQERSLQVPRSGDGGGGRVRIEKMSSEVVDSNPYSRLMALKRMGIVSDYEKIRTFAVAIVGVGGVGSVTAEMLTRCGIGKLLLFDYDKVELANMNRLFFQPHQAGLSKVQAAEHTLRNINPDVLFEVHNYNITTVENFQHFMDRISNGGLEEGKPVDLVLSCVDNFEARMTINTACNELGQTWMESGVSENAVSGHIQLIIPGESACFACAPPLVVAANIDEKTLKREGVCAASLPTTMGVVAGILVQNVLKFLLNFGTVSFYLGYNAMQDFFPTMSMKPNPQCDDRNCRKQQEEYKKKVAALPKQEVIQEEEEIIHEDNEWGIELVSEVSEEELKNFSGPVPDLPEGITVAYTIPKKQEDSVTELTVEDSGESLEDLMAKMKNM

Molecular target: T1, GST-UBA5 (UniProt Q9GZZ9 1-404)
T1 construct: also called E1-like enzyme for ufmylation; source: recombinant, E. coli, purified on Glutathione Sepharose 4B (GST kept)
Experiment: pull-down; GST-UBA5 bound to Glutathione Sepharose 4B, incubated 20 min at 4°C with purified proteins in 20 mM Tris-Cl pH 7.5, 150 mM NaCl, 1 mM EDTA, 1 mM DTT, 0.05% Nonidet P-40; NuPAGE and Coomassie staining; both purified

binding: binds
Substance: UFM1 R81C (recombinant) (from UniProt P61960-1)

No constants are given. Whether binding was seen depends on the method and setting. Binding can be weak; no strength is given.
